Experimental data: PubChem BioAssay AID686938 (Drosophila RNAi Screening Center, 2013)
The deposit covers about 23,000 reagents; shown is a random part of those with a known target gene and a result. In the full data, 75 (0.33%) were called active. 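Raw plate signals without normalisation; calls rest on plate z-scores that were not deposited; ratio present for only 364 wells.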 Reagents against one gene are numbered here. No sequences are given here. Not given: the dose of the treatment.

- Screen: 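Looking for CRAC channel components and the factors controlling them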 (primary screen)
- Cell system: Drosophila S2R+ cells
- Reagent: long dsRNA against Drosophila genes, about 0.25 µg dsRNA per well, roughly 10,000 cells
- Timing: 5 days of knock-down before the calcium assay
- Challenge: thapsigargin (SERCA pump blocker) to empty calcium stores; entry signal taken 4 min after adding it
- Detection: 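Per-well fluo-4 fluorescence in two replicates, unnormalised, measured in resting cells and 4 min after store depletion by the SERCA blocker thapsigargin; ratio of the two present in few wells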
- Reading the numbers: calcium entry signal: higher = stronger calcium signal after store depletion; entry to resting ratio: higher = more calcium entry relative to resting level; resting calcium signal: higher = higher resting calcium signal
- Active means: 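Called when the plate z-score of the entry-to-rest ratio, mean of duplicates, falls below −3; wells with low overall dye signal (Fmax z below −2) or more than five off-targets excluded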
- Calls: active = strongly reduced calcium entry; inactive = no strong reduction

| predicted target | reagent no. | calcium entry signal, replicate 1 (fluorescence units) | calcium entry signal, replicate 2 (fluorescence units) | entry to resting ratio | resting calcium signal, replicate 1 (fluorescence units) | resting calcium signal, replicate 2 (fluorescence units) | Call |
| --- | --- | --- | --- | --- | --- | --- | --- |
| Pex2 (Peroxin 2) | 1 | 3.41e7 | 2.42e7 | – | 2.34e7 | 1.01e7 | inactive |
| lncRNA:CR9162 (long non-coding RNA:CR9162) | 1 | 4.62e7 | – | – | 2.88e7 | – | inactive |
| Cdk7 (Cyclin-dependent kinase 7) | 1 | 3.42e7 | 3.51e7 | – | 1.57e7 | 1.50e7 | inactive |
| Cdk7 (Cyclin-dependent kinase 7) | 2 | 4.23e7 | 2.73e7 | – | 2.44e7 | 1.33e7 | inactive |
| Npc1b (Niemann-Pick type C-1b) | 1 | 3.45e7 | 4.74e7 | – | 1.88e7 | 2.02e7 | inactive |
| blow (blown fuse) | 1 | 2.50e7 | 2.02e7 | – | 1.04e7 | 1.01e7 | inactive |
| Polr2G (RNA polymerase II subunit G) | 1 | 1.67e7 | 1.85e7 | – | 9.96e6 | 1.07e7 | inactive |
| CG15740 | 1 | 3.17e7 | 2.59e7 | – | 2.04e7 | 1.51e7 | inactive |
| CG15740 | 2 | 5.80e7 | 2.85e7 | – | 2.97e7 | 1.27e7 | inactive |
| CCHa2-R (CCHamide-2 receptor) | 1 | 1.98e7 | 4.99e7 | – | 1.16e7 | 2.14e7 | inactive |
| CCHa2-R (CCHamide-2 receptor) | 2 | 4.29e7 | 4.29e7 | – | 2.14e7 | 2.03e7 | inactive |
| CCHa2-R (CCHamide-2 receptor) | 3 | 4.05e7 | 4.64e7 | – | 2.03e7 | 2.23e7 | inactive |
| Lip2 (Lipase 2) | 1 | 3.34e7 | 4.51e7 | – | 1.36e7 | 1.98e7 | inactive |
| Lip2 (Lipase 2) | 2 | 2.52e7 | 3.84e7 | – | 1.26e7 | 1.83e7 | inactive |
| CG10348 | 1 | 5.05e7 | 3.72e7 | – | 2.68e7 | 1.68e7 | inactive |
| CG10348 | 2 | 3.88e7 | 8.11e7 | – | 2.10e7 | 4.05e7 | inactive |
| CG10348 | 3 | 4.41e7 | 2.87e7 | – | 2.50e7 | 1.33e7 | inactive |
| Pgant9 (Polypeptide N-Acetylgalactosaminyltransferase 9) | 1 | 2.54e7 | 6.19e7 | – | 1.28e7 | 2.56e7 | inactive |
| Pgant9 (Polypeptide N-Acetylgalactosaminyltransferase 9) | 2 | 4.36e7 | 5.66e7 | – | 2.03e7 | 3.02e7 | inactive |
| Pgant9 (Polypeptide N-Acetylgalactosaminyltransferase 9) | 3 | 4.09e7 | 5.69e7 | – | 1.85e7 | 2.54e7 | inactive |
| Pgant9 (Polypeptide N-Acetylgalactosaminyltransferase 9) | 4 | 2.42e7 | 3.10e7 | – | 1.46e7 | 1.79e7 | inactive |
| Pgant9 (Polypeptide N-Acetylgalactosaminyltransferase 9) | 5 | 4.88e7 | 5.82e7 | – | 1.97e7 | 2.61e7 | inactive |
| Pgant9 (Polypeptide N-Acetylgalactosaminyltransferase 9) | 6 | 4.54e7 | 5.33e7 | – | 2.05e7 | 2.56e7 | inactive |
| Pgant9 (Polypeptide N-Acetylgalactosaminyltransferase 9) | 7 | 3.79e7 | 3.20e7 | – | 2.34e7 | 1.56e7 | inactive |
| Pgant9 (Polypeptide N-Acetylgalactosaminyltransferase 9) | 8 | 3.52e7 | 4.08e7 | – | 1.59e7 | 2.08e7 | inactive |
| CG5532 | 1 | 3.04e7 | 2.09e7 | – | 1.41e7 | 1.11e7 | inactive |
| Taf4 (TBP-associated factor 4) | 1 | 2.47e7 | 2.05e7 | – | 2.14e7 | 1.11e7 | inactive |
| Lsm12a (LSM12 homolog a) | 1 | 4.38e7 | 5.82e7 | – | 2.11e7 | 2.41e7 | inactive |
| Sh (Shaker) | 1 | 2.21e7 | 2.69e7 | – | 1.52e7 | 1.58e7 | inactive |
| Sh (Shaker) | 2 | 2.73e7 | 2.50e7 | – | 1.44e7 | 1.28e7 | inactive |
| Sh (Shaker) | 3 | 4.16e7 | 3.50e7 | – | 2.03e7 | 1.32e7 | inactive |
| Sh (Shaker) | 4 | 3.12e7 | 2.91e7 | – | 1.69e7 | 1.38e7 | inactive |
| Sh (Shaker) | 5 | 4.26e7 | 3.52e7 | – | 2.12e7 | 1.52e7 | inactive |
| NT5E-2 (Ecto-5'-nucleotidase 2) | 1 | 2.74e7 | 2.57e7 | – | 1.28e7 | 1.45e7 | inactive |
| CG3902 | 1 | 1.99e7 | 3.87e7 | – | 1.05e7 | 1.62e7 | inactive |
| dpr4 (defective proboscis extension response 4) | 1 | 3.19e7 | 3.34e7 | – | 1.57e7 | 1.69e7 | inactive |
| dpr4 (defective proboscis extension response 4) | 2 | 2.70e7 | 3.30e7 | – | 1.38e7 | 1.69e7 | inactive |
| bdg (bedraggled) | 1 | 2.90e7 | 2.36e7 | – | 1.29e7 | 1.52e7 | inactive |
| Asciz (ASCIZ zinc finger protein) | 1 | 2.60e7 | 2.65e7 | – | 1.58e7 | 1.33e7 | inactive |
| CG18304 | 1 | 3.58e7 | 3.29e7 | – | 1.73e7 | 1.55e7 | inactive |
| CG14341 | 1 | 4.71e7 | 5.48e7 | – | 1.93e7 | 2.24e7 | inactive |
| Rpt6 (Regulatory particle triple-A ATPase 6) | 1 | 3.45e7 | 3.09e7 | – | 1.91e7 | 1.43e7 | inactive |
| mthl11 (methuselah-like 11) | 1 | 2.55e7 | 3.86e7 | – | 1.30e7 | 1.74e7 | inactive |
| CG33309 | 1 | 2.97e7 | 4.55e7 | – | 1.74e7 | 2.12e7 | inactive |
| Amnionless | 1 | 4.07e7 | 4.38e7 | – | 1.87e7 | 1.93e7 | inactive |
| qjt (quijote) | 1 | 3.93e7 | 4.36e7 | – | 1.71e7 | 1.87e7 | inactive |
| Tpc2 | 1 | 4.07e7 | 4.66e7 | – | 2.15e7 | 2.35e7 | inactive |
| Cul2 (Cullin 2) | 1 | 3.59e7 | – | – | 1.80e7 | – | inactive |
| Nplp4 (Neuropeptide-like precursor 4) | 1 | 2.55e7 | 2.29e7 | – | 1.21e7 | 9.74e6 | inactive |
| Jon99Fii (Jonah 99Fii) | 1 | 3.02e7 | 4.51e7 | – | 1.65e7 | 1.91e7 | inactive |
| Or42b (Odorant receptor 42b) | 1 | 4.55e7 | 4.72e7 | – | 2.22e7 | 1.99e7 | inactive |
| Ggamma30A (G protein gamma subunit 30A) | 1 | 2.98e7 | 4.70e7 | – | 1.52e7 | 1.99e7 | inactive |
| Ggamma30A (G protein gamma subunit 30A) | 2 | 2.97e7 | 4.46e7 | – | 1.37e7 | 1.97e7 | inactive |
| Argp (Arginine phosphatase) | 1 | 3.19e7 | 4.72e7 | – | 1.56e7 | 6.20e7 | inactive |
| alpha-Est2 (alpha-Esterase-2) | 1 | 3.13e7 | 2.84e7 | – | 1.47e7 | 1.35e7 | inactive |
| Pdk1 (Phosphoinositide-dependent kinase 1) | 1 | 2.51e7 | 4.14e7 | – | 1.39e7 | 1.83e7 | inactive |
| Hex-A (Hexokinase A) | 1 | 2.78e7 | 5.15e7 | – | 1.79e7 | 3.19e7 | inactive |
| CG31075 | 1 | 3.54e7 | 5.13e7 | – | 1.73e7 | 2.28e7 | inactive |
| G9a | 1 | 4.15e7 | 6.05e7 | 2.2 | 1.89e7 | 2.33e7 | inactive |
| CG13875 | 1 | 3.99e7 | 4.51e7 | – | 2.00e7 | 2.08e7 | inactive |
| lush | 1 | 2.71e7 | 4.66e7 | – | 1.34e7 | 1.96e7 | inactive |
| CG33655 | 1 | 3.44e7 | 6.09e7 | – | 1.59e7 | 2.57e7 | inactive |
| CG14435 | 1 | 3.32e7 | 4.43e7 | – | 1.82e7 | 2.21e7 | inactive |
| CG14435 | 2 | 4.35e7 | 4.75e7 | – | 2.41e7 | 1.83e7 | inactive |
| CG34231 | 1 | 3.86e7 | 3.87e7 | – | 1.61e7 | 1.69e7 | inactive |
| CG5783 | 1 | 5.09e7 | 3.35e7 | – | 2.07e7 | 1.60e7 | inactive |
| PGRP-LA (Peptidoglycan recognition protein LA) | 1 | 1.48e7 | 1.97e7 | – | 8.76e6 | 1.04e7 | inactive |
| PGRP-LA (Peptidoglycan recognition protein LA) | 2 | 1.33e7 | 2.05e7 | – | 8.89e6 | 1.01e7 | inactive |
| CG4074 | 1 | 2.54e7 | 4.67e7 | – | 1.26e7 | 1.93e7 | inactive |
| ATPsynC (ATP synthase, subunit C) | 1 | 2.06e7 | 2.60e7 | – | 1.32e7 | 1.41e7 | inactive |
| CG3942 | 1 | 3.52e7 | 2.67e7 | – | 1.73e7 | 1.38e7 | inactive |
| Hex-C (Hexokinase C) | 1 | 3.21e7 | 3.29e7 | – | 1.70e7 | 1.66e7 | inactive |
| CG33978 | 1 | 5.14e7 | 2.79e7 | – | 2.30e7 | 1.28e7 | inactive |
| Kr (Kruppel) | 1 | 3.54e7 | 2.78e7 | – | 1.87e7 | 1.29e7 | inactive |
| CG33287 | 1 | 2.96e7 | 2.70e7 | – | 1.68e7 | 1.30e7 | inactive |

Quoted from above for reference:
| predicted target | reagent no. | calcium entry signal, replicate 1 (fluorescence units) | calcium entry signal, replicate 2 (fluorescence units) | entry to resting ratio | resting calcium signal, replicate 1 (fluorescence units) | resting calcium signal, replicate 2 (fluorescence units) | Call |
| --- | --- | --- | --- | --- | --- | --- | --- |
| CG10348 | 3 | 4.41e7 | 2.87e7 | – | 2.50e7 | 1.33e7 | inactive |
| Pgant9 (Polypeptide N-Acetylgalactosaminyltransferase 9) | 1 | 2.54e7 | 6.19e7 | – | 1.28e7 | 2.56e7 | inactive |
| Pgant9 (Polypeptide N-Acetylgalactosaminyltransferase 9) | 2 | 4.36e7 | 5.66e7 | – | 2.03e7 | 3.02e7 | inactive |
| Pgant9 (Polypeptide N-Acetylgalactosaminyltransferase 9) | 3 | 4.09e7 | 5.69e7 | – | 1.85e7 | 2.54e7 | inactive |
| Pgant9 (Polypeptide N-Acetylgalactosaminyltransferase 9) | 4 | 2.42e7 | 3.10e7 | – | 1.46e7 | 1.79e7 | inactive |
| Pgant9 (Polypeptide N-Acetylgalactosaminyltransferase 9) | 5 | 4.88e7 | 5.82e7 | – | 1.97e7 | 2.61e7 | inactive |
| Pgant9 (Polypeptide N-Acetylgalactosaminyltransferase 9) | 6 | 4.54e7 | 5.33e7 | – | 2.05e7 | 2.56e7 | inactive |
| Pgant9 (Polypeptide N-Acetylgalactosaminyltransferase 9) | 7 | 3.79e7 | 3.20e7 | – | 2.34e7 | 1.56e7 | inactive |
| Pgant9 (Polypeptide N-Acetylgalactosaminyltransferase 9) | 8 | 3.52e7 | 4.08e7 | – | 1.59e7 | 2.08e7 | inactive |
| CG5532 | 1 | 3.04e7 | 2.09e7 | – | 1.41e7 | 1.11e7 | inactive |
| Taf4 (TBP-associated factor 4) | 1 | 2.47e7 | 2.05e7 | – | 2.14e7 | 1.11e7 | inactive |
| Lsm12a (LSM12 homolog a) | 1 | 4.38e7 | 5.82e7 | – | 2.11e7 | 2.41e7 | inactive |
